{"source": "paper doi:10.1101/2022.07.21.500383", "about": "(bioRxiv, 2022)", "binders": {"B1": {"name": "IL-11_(Δ10/Mutein) (ligand, UniProt P20809 32-199)", "chain": "SPDPRAELDSTVLLTRSLLADTRQLAAQLRDKFPADGDHNLDSLPTLPAIDYALGALQLPGVLTRLRADLLSYLRHVQWLRRAGGSSLKTLEPELGTLQARLDRLLRRLQLLMSRLALPQPPPDPPAPPLAPPSSAAGGIRAAHAILGGLHLTLDWAVRGLLLLKTRL"}, "B2": {"name": "IL-11_(Δ10/W147A) (ligand, UniProt P20809 32-199)", "chain": "B1 chain with P48A, A49M, I50S, D51A, Y52G"}}, "key": {"[1]": {"molecular_target": "IL-11_(Δ10/Mutein) (human) (UniProt P20809)", "assay": "AUC"}, "[2]": {"molecular_target": "IL-11_(Δ10/W147A) (human) (UniProt P20809)", "assay": "AUC"}}, "note": "Positions count from the first letter of the chain named. Numbers in names are those of the source. Results are given in words; binding and its absence hold for the method and conditions named."}
{"binder": "B1", "values": [{"measurement": "binding", "setting": "[1]", "result": "no binding"}]}
{"binder": "B2", "values": [{"measurement": "binding", "setting": "[2]", "result": "no binding"}]}
